Results reported in PMC8961497.
Results are given in words; binding and its absence hold for the method and conditions named. For some assays here: In cells and extracts the contact can be indirect. Some entries that bind do so weakly or less than the wild type. For some assays here: Sequences can lack the tags named with a protein. Blank lines part the entries; values can stand above or below the binder they belong to.

Key:
[1] = biological target: T1, ETS-domain containing protein (ELK1), endogenous in HGECs (human (endogenous in HGECs)) (UniProt P19419); test: co-IP; endogenous IP from HGEC lysates with antibodies against bach1, SETD8, ELK1 or IgG at 4 °C overnight, protein Dynabeads 6 h at 4 °C, washed 3 times with RIPA, Western blot
T1 sequence: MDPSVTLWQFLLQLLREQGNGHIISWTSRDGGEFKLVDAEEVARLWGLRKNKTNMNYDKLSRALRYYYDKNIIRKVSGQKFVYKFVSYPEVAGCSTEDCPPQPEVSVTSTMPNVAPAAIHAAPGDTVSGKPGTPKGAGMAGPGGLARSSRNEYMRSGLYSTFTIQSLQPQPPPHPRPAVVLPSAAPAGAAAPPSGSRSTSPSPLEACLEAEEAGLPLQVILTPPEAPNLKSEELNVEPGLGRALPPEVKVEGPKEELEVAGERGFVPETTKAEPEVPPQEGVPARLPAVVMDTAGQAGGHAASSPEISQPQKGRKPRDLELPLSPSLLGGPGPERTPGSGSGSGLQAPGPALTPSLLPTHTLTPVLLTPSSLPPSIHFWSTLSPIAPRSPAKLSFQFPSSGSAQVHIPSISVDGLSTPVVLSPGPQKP

GST-ELK1 fusion protein = biological target: T2, GST-ELK1 fusion protein (UniProt P19419); test: pull-down; bought His-SETD8 and GST-ELK1 mixed 12 h at 4 °C in GST binding buffer, anti-His or anti-GST beads for 4 h more, washed three times, Western blot; both purified
T2 sequence: T1 sequence

binding [1]: binds
B1: SET domain-containing protein 8 (SETD8), endogenous in HGECs (protein, UniProt Q9NQR1 1-393)
chain: MGEGGAAAALVAAAAAAAAAAAAVVAGQRRRRLGRRARCHGPGRAAGGKMSKPCAVEAAAAAVAATAPGPEMVERRGPGRPRTDGENVFTGQSKIYSYMSPNKCSGMRFPLQEENSVTHHEVKCQGKPLAGIYRKREEKRNAGNAVRSAMKSEEQKIKDARKGPLVPFPNQKSEAAEPPKTPPSSCDSTNAAIAKQALKKPIKGKQAPRKKAQGKTQQNRKLTDFYPVRRSSRKSKAELQSEERKRIDELIESGKEEGMKIDLIDGKGRGVIATKQFSRGDFVVEYHGDLIEITDAKKREALYAQDPSTGCYMYYFQYLSKTYCVDATRETNRLGRLINHSKCGNCQTKLHDIDGVPHLILIASRDIAAGEELLYDYGDRSKASIEAHPWLKH

binding (GST-ELK1 fusion protein): binds
B2: His-SETD8 fusion protein (protein, UniProt Q9NQR1 1-393)
chain: B1 chain
